# From PubChem BioAssay (EPA / NIEHS)
# Chains of the proteins cited; added tags and fusions are not shown. Lines headed by an entry give the natural chain unless they say otherwise; changes in a name come on top.
# UniProt Q14994: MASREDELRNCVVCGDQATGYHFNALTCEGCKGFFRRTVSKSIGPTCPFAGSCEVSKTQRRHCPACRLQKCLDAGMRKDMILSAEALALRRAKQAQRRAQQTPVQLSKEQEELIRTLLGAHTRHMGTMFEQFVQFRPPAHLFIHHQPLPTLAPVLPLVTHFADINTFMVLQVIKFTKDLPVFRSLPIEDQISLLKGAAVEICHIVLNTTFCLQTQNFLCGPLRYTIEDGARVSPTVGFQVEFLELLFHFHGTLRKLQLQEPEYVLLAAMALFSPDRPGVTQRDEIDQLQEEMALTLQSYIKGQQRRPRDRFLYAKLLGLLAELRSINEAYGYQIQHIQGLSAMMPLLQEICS
# UniProt P49884, whole entry, looked up: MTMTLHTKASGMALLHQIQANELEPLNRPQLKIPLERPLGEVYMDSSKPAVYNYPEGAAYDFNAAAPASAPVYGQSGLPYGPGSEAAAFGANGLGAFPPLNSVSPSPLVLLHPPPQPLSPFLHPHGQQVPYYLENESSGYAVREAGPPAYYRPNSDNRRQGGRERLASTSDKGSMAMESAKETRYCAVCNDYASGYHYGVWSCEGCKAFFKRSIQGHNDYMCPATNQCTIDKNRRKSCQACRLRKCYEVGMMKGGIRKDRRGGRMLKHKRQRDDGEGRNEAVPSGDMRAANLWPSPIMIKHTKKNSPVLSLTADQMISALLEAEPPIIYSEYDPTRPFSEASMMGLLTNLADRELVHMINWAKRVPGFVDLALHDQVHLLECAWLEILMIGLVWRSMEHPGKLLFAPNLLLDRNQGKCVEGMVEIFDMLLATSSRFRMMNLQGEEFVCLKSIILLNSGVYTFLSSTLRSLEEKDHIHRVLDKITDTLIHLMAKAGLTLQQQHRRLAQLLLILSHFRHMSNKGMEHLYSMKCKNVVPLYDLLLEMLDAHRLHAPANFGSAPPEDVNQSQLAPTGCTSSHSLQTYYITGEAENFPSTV
# UniProt P03372, whole entry, looked up: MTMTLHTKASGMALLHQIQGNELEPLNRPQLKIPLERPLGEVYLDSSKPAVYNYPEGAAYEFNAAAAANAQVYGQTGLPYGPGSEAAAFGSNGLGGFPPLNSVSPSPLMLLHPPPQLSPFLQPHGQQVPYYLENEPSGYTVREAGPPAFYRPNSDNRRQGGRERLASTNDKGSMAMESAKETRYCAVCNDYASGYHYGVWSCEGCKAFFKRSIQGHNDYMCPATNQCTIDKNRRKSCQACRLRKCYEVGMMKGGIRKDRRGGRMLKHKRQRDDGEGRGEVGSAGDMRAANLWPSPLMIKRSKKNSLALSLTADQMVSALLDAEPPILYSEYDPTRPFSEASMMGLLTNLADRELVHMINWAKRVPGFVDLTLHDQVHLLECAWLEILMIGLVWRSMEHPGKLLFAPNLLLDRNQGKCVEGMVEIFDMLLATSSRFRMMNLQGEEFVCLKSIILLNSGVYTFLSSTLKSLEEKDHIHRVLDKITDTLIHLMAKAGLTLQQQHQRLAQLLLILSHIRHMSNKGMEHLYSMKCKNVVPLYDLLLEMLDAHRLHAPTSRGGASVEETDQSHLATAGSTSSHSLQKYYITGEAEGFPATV
# UniProt Q92731, whole entry, looked up: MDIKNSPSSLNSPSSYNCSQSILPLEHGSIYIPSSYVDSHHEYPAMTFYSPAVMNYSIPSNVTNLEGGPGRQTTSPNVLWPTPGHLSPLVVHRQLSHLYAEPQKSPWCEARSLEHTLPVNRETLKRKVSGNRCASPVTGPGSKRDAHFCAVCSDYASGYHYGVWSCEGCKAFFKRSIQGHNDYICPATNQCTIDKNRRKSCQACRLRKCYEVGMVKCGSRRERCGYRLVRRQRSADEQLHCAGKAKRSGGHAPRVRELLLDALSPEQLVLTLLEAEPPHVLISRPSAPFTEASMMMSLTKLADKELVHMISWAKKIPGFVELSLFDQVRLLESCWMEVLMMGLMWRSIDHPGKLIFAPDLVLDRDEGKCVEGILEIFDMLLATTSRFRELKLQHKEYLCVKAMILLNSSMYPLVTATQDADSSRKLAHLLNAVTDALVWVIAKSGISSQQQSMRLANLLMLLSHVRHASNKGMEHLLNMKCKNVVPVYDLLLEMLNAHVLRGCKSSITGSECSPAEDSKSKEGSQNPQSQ
# UniProt O97775: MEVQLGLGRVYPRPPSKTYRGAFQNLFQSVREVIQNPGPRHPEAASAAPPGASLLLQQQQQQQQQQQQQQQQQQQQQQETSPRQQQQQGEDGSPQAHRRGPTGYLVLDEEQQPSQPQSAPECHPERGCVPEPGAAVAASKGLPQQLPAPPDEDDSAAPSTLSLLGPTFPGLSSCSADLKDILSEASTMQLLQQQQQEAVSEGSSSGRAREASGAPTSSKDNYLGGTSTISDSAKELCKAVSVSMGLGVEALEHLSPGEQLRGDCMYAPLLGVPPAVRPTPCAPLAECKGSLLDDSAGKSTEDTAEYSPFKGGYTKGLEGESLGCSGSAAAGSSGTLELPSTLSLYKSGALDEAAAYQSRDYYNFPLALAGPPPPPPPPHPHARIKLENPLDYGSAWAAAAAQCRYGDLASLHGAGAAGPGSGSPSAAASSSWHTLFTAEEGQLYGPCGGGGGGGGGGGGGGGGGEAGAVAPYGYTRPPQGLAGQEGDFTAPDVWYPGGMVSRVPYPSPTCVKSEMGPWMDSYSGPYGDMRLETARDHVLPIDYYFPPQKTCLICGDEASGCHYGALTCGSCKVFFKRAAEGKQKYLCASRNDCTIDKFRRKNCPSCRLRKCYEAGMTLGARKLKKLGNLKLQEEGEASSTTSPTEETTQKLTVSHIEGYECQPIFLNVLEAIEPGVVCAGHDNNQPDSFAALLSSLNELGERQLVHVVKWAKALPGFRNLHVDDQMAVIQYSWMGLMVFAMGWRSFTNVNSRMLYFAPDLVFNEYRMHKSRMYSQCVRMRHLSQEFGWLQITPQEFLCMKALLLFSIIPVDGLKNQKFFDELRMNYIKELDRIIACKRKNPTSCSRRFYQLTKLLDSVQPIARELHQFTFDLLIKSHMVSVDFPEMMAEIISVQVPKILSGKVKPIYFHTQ
# UniProt P10275: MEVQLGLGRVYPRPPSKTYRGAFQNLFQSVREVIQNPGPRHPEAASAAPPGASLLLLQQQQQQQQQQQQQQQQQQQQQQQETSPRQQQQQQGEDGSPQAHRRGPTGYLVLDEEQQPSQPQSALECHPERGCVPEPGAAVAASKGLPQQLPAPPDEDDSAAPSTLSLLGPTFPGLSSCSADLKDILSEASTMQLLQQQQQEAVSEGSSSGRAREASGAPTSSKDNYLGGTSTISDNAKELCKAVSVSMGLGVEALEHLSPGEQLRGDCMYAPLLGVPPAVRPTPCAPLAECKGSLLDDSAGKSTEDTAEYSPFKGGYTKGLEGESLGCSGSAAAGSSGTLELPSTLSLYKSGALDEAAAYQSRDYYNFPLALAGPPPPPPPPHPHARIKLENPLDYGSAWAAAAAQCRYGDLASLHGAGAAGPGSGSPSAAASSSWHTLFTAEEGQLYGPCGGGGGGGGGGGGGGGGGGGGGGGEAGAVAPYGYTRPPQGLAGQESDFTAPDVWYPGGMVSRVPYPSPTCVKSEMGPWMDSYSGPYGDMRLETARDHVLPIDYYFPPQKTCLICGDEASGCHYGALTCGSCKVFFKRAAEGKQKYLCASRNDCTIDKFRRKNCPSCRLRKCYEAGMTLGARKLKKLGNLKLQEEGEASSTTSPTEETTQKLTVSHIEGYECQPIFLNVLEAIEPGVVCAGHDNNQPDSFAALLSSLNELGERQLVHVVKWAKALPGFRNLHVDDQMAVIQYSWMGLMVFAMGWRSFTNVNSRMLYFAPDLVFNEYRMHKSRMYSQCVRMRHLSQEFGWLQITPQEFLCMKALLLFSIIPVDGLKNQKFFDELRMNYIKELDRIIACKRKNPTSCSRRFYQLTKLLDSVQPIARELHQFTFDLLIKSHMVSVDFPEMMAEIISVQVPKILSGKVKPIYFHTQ
# Values joined by “and” are separate entries in the source; they are usually repeats but may differ in a detail not shown here. Equal entries are not always repeated. The inconclusive results got no clear call from the source; some entries with a clear call stand among them for comparison. For part of these data: Potencies of inconclusive entries are doubtful fits and often do not repeat. Where a structure was tested more than once in an assay, its records may differ in their call. Active and inactive are the calls of the source. How the source made its calls: active means hit-call score of the fitted dose curve at least 0.9, where 1 is the maximum; inconclusive means response in the unintended direction; inactive means score below 0.9.
# How the values were obtained:
# [1] = target: human Constitutive Androstane Receptor (CAR), NR1I3 (gene 9970) (UniProt Q14994); test: NVS_NR_hCAR_Antagonist: NovaScreen (NVS) Nuclear Receptor Binding Assay for human Constitutive Androstane Receptor Antagonism (CAR) (AID 2283344)
# Outline: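 Single 25 uM duplicate primary screen, with concentration-series follow-up on actives. Cell-free binding format run in antagonist mode, TR-FRET signal taken 1 h post-dose; activity is signal loss relative to DMSO.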
# [2] = target: bovine Estrogen Receptor (ER), ESR1 (gene 407238) (UniProt P49884); test: NVS_NR_bER: NovaScreen (NVS) Nuclear Receptor Binding Assay for bovine Estrogen Receptor (ER) (AID 2283345);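 further: actives lower the bound radioligand count which means they displace the ER ligand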
# Outline: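 Bovine uterine membranes; tritiated or iodinated radioligand; competitive displacement; 18 h; scintillation read; DMSO negative control; 25 uM duplicates, then concentration series for actives.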
# [3] = target: Estrogen receptor (Homo sapiens) (UniProt P03372); test: NVS_NR_hER: NovaScreen (NVS) Nuclear Receptor Binding Assay for human Estrogen Receptor (ER) (AID 2283348)
# Outline: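 MCF7-derived receptor extract, radiolabelled ligand, competitive displacement. Read: scintillation counts at 18 h. DMSO = negative control/baseline. Primary 25 uM duplicate; follow-up concentration–response.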
# [4] = target: Estrogen receptor (Homo sapiens) + Estrogen receptor beta (Homo sapiens) (UniProt P03372+Q92731); test: OT_ER_ERaERb_0480: Odyssey Thera (OT) 8-hour HEK293T Protein-Complementation Assay for Estrogen Receptor-alpha/-beta Heterodimer (AID 2283352)
# Outline: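 HEK293T protein-fragment complementation assay of ER-alpha/ER-beta LBD heterodimerisation, read 8 h after dosing. Mean nuclear/cytoplasmic fluorescence intensity measured by laser scanning cytometry; gain of signal fitted relative to DMSO.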
# NCBI gene 100848466 = test: NVS_NR_bPR: NovaScreen (NVS) Nuclear Receptor Binding Assay for bovine Progextron Receptor (PR) (AID 2283343);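 on AC50: actives lower bound radioligand signal below DMSO meaning displacement of the label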
# Outline: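 Scintillation counts of bound radioligand were read 18 hours after chemical addition to membranes extracted from bovine uterus. Displacement was scored as loss of signal relative to DMSO controls. Screening began at 25 uM in duplicate.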
# [5] = target: Estrogen receptor (Homo sapiens) (UniProt P03372); test: OT_ER_ERaERa_0480: Odyssey Thera (OT) 8-hour HEK293T Protein-Complementation Assay for Estrogen Receptor-alpha/-alpha Homodimer (AID 2283351);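 further: rise in fluorescence from reassembled reporter fragments on ERα LBD homodimer in nucleus or whole cell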
# Outline: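 Read-out: fluorescence intensity rise relative to DMSO, nuclear for agonists, nuclear plus cytoplasmic for antagonists. Construct is the ERα LBD (aa 310-547) homodimer fragment-complementation pair, stably expressed in HEK293T; exposure 8 h.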
# [6] = target: chimpanzee Androgen Receptor (AR), AR (gene 747460) (UniProt O97775); test: NVS_NR_cAR: NovaScreen (NVS) Nuclear Receptor Binding Assay for chimpanzee Androgen Receptor (AR) (AID 2283346);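 further: radioligand displacement from AR measured by scintillation counting in a cell-free assay; a loss of bound radioligand signal versus DMSO counts as binding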
# Outline: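 Radioligand binding to chimpanzee AR expressed in Sf9/Sf21 cells, cell-free, measured 72 h after dosing by lysate-based scintillation counting. Loss of signal vs DMSO; initial duplicate screen at 25 uM, actives retested in concentration series.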
# [7] = target: Androgen Receptor/SRC-1 Co-activator, AR (gene 367) (UniProt P10275); test: OT_AR_ARSRC1_0480: Odyssey Thera (OT) 8-hour HEK293T Protein-Complementation Assay for Androgen Receptor/SRC-1 Co-activator (AID 2283354);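 further: hits raise the complementation signal above DMSO so AC50 marks enhancers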
# Outline: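 Split-Venus PCA, stable HEK293T, AR/SRC-1 fusions; 8 h exposure. Readout: 488nm N/C fluorescence ratio, ≥400 cells/image; fitted upward vs DMSO baseline.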
# [8] = target: Androgen Receptor/SRC-1 Co-activator, AR (gene 367) (UniProt P10275); test: OT_AR_ARSRC1_0960: Odyssey Thera (OT) 16-hour HEK293T Protein-Complementation Assay for Androgen Receptor/SRC-1 Co-activator (AID 2283353);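 further: actives raise the signal above DMSO so potency reflects increased AR and SRC-1 complex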
# Protocol: OT_AR_ARSRC1_0960 is a cell-based, single-readout assay that uses HEK293T, a human kidney cell line, with measurements taken at 16 hours after chemical dosing in a 384-well plate.OT_AR_ARSRC1_0960 is one of one assay component(s) measured or calculated from the OT_AR_ARSRC1_0960 assay. It is designed to make measurements of protein fragment complementation, a form of binding reporter, as detected with fluorescence intensity signals by Protein-fragment Complementation technology.Data from the assay component OT_AR_ARSRC1_0960 was analyzed into 1 assay endpoint. This assay endpoint, OT_AR_ARSRC1_0960, was analyzed in the positive analysis fitting direction relative to DMSO as the negative control and baseline of activity. […] Furthermore, this assay endpoint can be referred to as a primary readout, because the performed assay has only produced 1 assay endpoint. […]
# Protein-fragment complementation assay, or PCA, is a method for the identification and quantification of protein-protein interactions. […] Interaction between the bait and the prey proteins brings the fragments of the reporter protein in close proximity to allow them to form a functional reporter protein whose activity can be measured. The OT AR / SRC-1 assay assessed androgen receptor chemical interactions using a rapidly maturing, intensely fluorescent mutant of YFP known as Venus, rationally dissected into two separate fragments. […]
smiles,measurement,setting,value
Nc1ccc(N=Nc2ccccc2)cc1,AC50,[1],inconclusive: 8.65 µM
same,outcome,[2],inactive
same,AC50,[3],inconclusive: 2.41 µM
same,AC50,[4],active: 29 µM
Clc1nc(Cl)nc(Nc2ccccc2Cl)n1,AC50,[1],inconclusive: 25 µM
Cc1c(COC(=O)[C@@H]2[C@H](/C=C(\Cl)C(F)(F)F)C2(C)C)cccc1-c1ccccc1,AC50,NCBI gene 100848466,inconclusive: 25 µM
same,AC50,[1],inconclusive: 1.36 µM
same,AC50,[2],inconclusive: 25 µM
same,outcome,[4],inactive
Cc1cc(C2CC2)nc(Nc2ccccc2)n1,AC50,[1],active: 25 µM
CCc1cccc(CC)c1N(COC)C(=O)CCl,AC50,[1],active: 9.33 µM
same,AC50,[5],inconclusive: 50 µM
same,AC50,[4],inconclusive: 50 µM
CNC(=O)Oc1cccc2ccccc12,AC50,NCBI gene 100848466,inconclusive: 5.97 µM
same,AC50,[2],inconclusive: 25 µM
CC(C)Oc1cccc(NC(=O)c2ccccc2C(F)(F)F)c1,AC50,NCBI gene 100848466,inconclusive: 25 µM
same,outcome,[2],inactive
same,AC50,[3],inconclusive: 25 µM
same,AC50,[5],inconclusive: 50 µM
N#Cc1cccnc1,AC50,[1],inconclusive: 25 µM
same,AC50,[4],inconclusive: 0.094 µM
COc1cccc(C(=O)NN(C(=O)c2cc(C)cc(C)c2)C(C)(C)C)c1C,AC50,NCBI gene 100848466,inconclusive: 11.9 µM
same,outcome,[1],inactive
CCOP(=O)(OCC)Oc1nc(Cl)c(Cl)cc1Cl,AC50,NCBI gene 100848466,inconclusive: 25 µM
same,AC50,[2],inconclusive: 25 µM
CC(C)NC(=O)N1CC(=O)N(c2cc(Cl)cc(Cl)c2)C1=O,AC50,NCBI gene 100848466,inconclusive: 0.176 µM
same,outcome,[1],inactive
same,AC50,[2],inconclusive: 6.96 µM
same,AC50,[3],inconclusive: 0.0517 µM
O=C1C2CC=CCC2C(=O)N1SC(Cl)(Cl)Cl (configuration not stated),outcome,NCBI gene 100848466,inactive
same,AC50,[2],inconclusive: 25 µM
same,AC50,[3],inconclusive: 0.298 µM
OC(c1ccc(Cl)cc1)(c1ccc(Cl)cc1)C(Cl)(Cl)Cl,AC50,NCBI gene 100848466,inconclusive: 25 µM
same,AC50,[1],inconclusive: 25 µM
same,outcome,[3],inactive
same,AC50,[4],active: 11.8 µM
CCN(CC)c1nc(C)cc(OP(=S)(OC)OC)n1,AC50,[1],inconclusive: 1.73 µM
same,AC50,[2],inconclusive: 12.1 µM
same,outcome,[3],inactive
same,AC50,[4],active: 19.9 µM
CCCOCC(=Nc1ccc(Cl)cc1C(F)(F)F)n1ccnc1,outcome,NCBI gene 100848466,inactive
same,AC50,[1],active: 5.88 µM
CCCN(CCC)c1c([N+](=O)[O-])cc(S(N)(=O)=O)cc1[N+](=O)[O-],AC50,[1],active: 526 nM and active: 6.79 µM
same,AC50,[4],inconclusive: 53 µM
Cc1cc(Cl)ccc1OCC(=O)O,AC50,[1],inconclusive: 0.208 µM
same,AC50,[2],inconclusive: 25 µM
same,AC50,[3],inconclusive: 46.7 µM
same,outcome,[3],inactive
C=CC1(C)OC(=O)N(c2cc(Cl)cc(Cl)c2)C1=O (configuration not stated),outcome,NCBI gene 100848466,inactive
same,AC50,[2],inconclusive: 6.3 µM and inconclusive: 25 µM and inconclusive: 4.96 µM
same,AC50,[4],inconclusive: 50 µM
O=S(=O)(c1ccc(O)cc1)c1ccc(O)cc1,AC50,[2],active: 15.1 µM
CC(C)Oc1cc(-n2nc(C(C)(C)C)oc2=O)c(Cl)cc1Cl,AC50,NCBI gene 100848466,inconclusive: 25 µM
same,AC50,[2],inconclusive: 0.386 µM
same,AC50,[3],inconclusive: 0.444 µM
COP(=S)(OC)Oc1ccc([N+](=O)[O-])cc1,outcome,[1],inactive
same,AC50,[2],inconclusive: 6.93 µM
same,AC50,[3],inconclusive: 25 µM
CCC(C)(c1ccc(O)cc1)c1ccc(O)cc1,AC50,[2],active: 341 nM [middle of 4 runs]
C#CCOS(=O)OC1CCCCC1Oc1ccc(C(C)(C)C)cc1 (configuration not stated),outcome,NCBI gene 100848466,inactive
same,AC50,[2],inconclusive: 25 µM
CC(C)(C)C(O)/C(=C\c1ccc(Cl)cc1Cl)n1cncn1 (configuration not stated),outcome,NCBI gene 100848466,inactive
same,AC50,[3],inconclusive: 44.7 µM
same,AC50,[4],inconclusive: 50 µM
CC(C)(C)C(O)C(Oc1ccc(Cl)cc1)n1cncn1 (configuration not stated),AC50,[1],inconclusive: 25 µM
same,outcome,[1],inactive
Fc1ccc(C2(Cn3cncn3)OC2c2ccccc2Cl)cc1 (configuration not stated),outcome,[6],inactive
same,AC50,[4],active: 12.7 µM
CCC[CH2][Sn]([Cl])([Cl])[CH2]CCC,outcome,[3],inactive
c1nc[nH]n1,AC50,[3],inconclusive: 1.31 µM
CNC(=O)O/N=C/C(C)(C)S(C)(=O)=O,AC50,[7],inconclusive: 50 µM
C[N+](C)(C)CC1CO1 (configuration not stated),AC50,[8],inconclusive: 50 µM

# A second format for some results above.
smiles	measurement	setting	value
CC(C)Oc1cccc(NC(=O)c2ccccc2C(F)(F)F)c1	outcome	[2]	inactive
same	AC50	[3]	inconclusive: 25 µM
same	AC50	[5]	inconclusive: 50 µM
N#Cc1cccnc1	AC50	[1]	inconclusive: 25 µM
same	AC50	[4]	inconclusive: 0.094 µM
